# Test results as given in patent publication US12338476B2, “Methods for making high intensity sweeteners” (Firmenich Incorporated, priority 2018, dated 2025).
# Test system: S. cerevisiae
# Assay: Hydrolysis by S. cerevisiae grown in the presence of mogroside, lysate analysed by HPLC (Examples 64, 65)
# Format: cell-based
# Details: S. cerevisiae grown in the presence of Mogroside V
structure (smiles),measurement,setting,value
C[C@H](CC[C@@H](O[C@@H]1O[C@H](CO[C@@H]2O[C@H](CO)[C@@H](O)[C@H](O)[C@H]2O)[C@@H](O)[C@H](O)[C@H]1O[C@@H]1O[C@H](CO)[C@@H](O)[C@H](O)[C@H]1O)C(C)(C)O)[C@H]1CC[C@@]2(C)[C@@H]3CC=C4[C@@H](CC[C@H](O[C@@H]5O[C@H](CO[C@@H]6O[C@H](CO)[C@@H](O)[C@H](O)[C@H]6O)[C@@H](O)[C@H](O)[C@H]5O)C4(C)C)[C@]3(C)[C@H](O)C[C@]12C [Mogroside V],mogroside content by HPLC,after 1 day of incubation,"produced a mixture of Mogroside V, Mogrosides IV, and Mogroside IIIE"
same,mogroside content by HPLC,after 2 days of incubation,substantially all of the mogrosides were converted to Mogroside IIIE
